Results taken from US20220143148A1, “COMPOSITIONS AND METHODS FOR MODULATING CGRP SIGNALING TO REGULATE INTESTINAL INNATE LYMPHOID CELLS” (The Broad Institute, Inc., priority 2019, published 2022).
At least one structure is not confirmed: it was looked up by name or label, or the drawing left a doubt.

System: KLRG1+ ILC2s
Test: In vitro proliferation assay (CellTrace Violet, flow cytometry)
Type: cell-based, mouse
Settings: IL-25 and forskolin vs DMSO, 40 hours
Description: Flow cytometry and cell sorting. Cells were washed and suspended in MACS buffer (pH 7.4; PBS plus 2% FCS and 2 mM EDTA). Nonspecific antibody binding was blocked with CD16/CD32 (2.4G2) antibody for 15 min on ice. Cells were then stained with antibody cocktails for 30 min at 4° C. Lineage-positive cells were excluded for analyzing ILCs by staining for CD3ε (145-2C11), CD5 (53-7.3), CD19 (6D5), CD11b (M1/70), CD8 (53-6.7), CD11c (N418), Gr-1 (RB6-8C5), TCRγδ (eBioGL3 (GL-3, GL3)) and TCRβ (H57-597). To analyze mast cells, lineage-positive cells were excluded by staining for CD3ε, CD5, CD19, CD11c and SiglecF (E50-2440). For surface staining, antibodies for KLRG1 (2F1), CD45 (30-F11), CD127 (A7R34), CCR6 (29-2L17), NKp46 (29A1.4), CD90.2 (53-2.1), FcεRI (Mar-1), IgD (11-26c.2a) and ST2 (DJ8) were used. For intracellular staining, cells were fixed and permeabilized using the Foxp3 transcription factor staining buffer set, followed by staining with anti-GATA-3 (TWAJ) or anti-RORγt (B2D) antibodies. Dead cells were excluded with 7-AAD or Fixable Viability Dye eFluor 780. Flow cytometry was performed on Cytoflex (Beckman Coulter) and analyzed with FlowJo software. Sorting was performed with the SH800S Cell Sorter (Sony Biotechnology).
ILC2 culture. […]

For C=C[C@@]1(C)CC(=O)[C@]2(O)[C@@]3(C)[C@@H](O)CCC(C)(C)[C@@H]3[C@H](O)[C@H](OC(C)=O)[C@@]2(C)O1 [forskolin], the “proliferation of ILC2s” value was “suppressed”.
